Test results as given in the supplement of paper PMC6821926, “Diaminoquinazoline MMV675968 from Pathogen Box inhibits Acinetobacter baumannii growth through targeting of dihydrofolate reductase” (Scientific Reports, 2019).
± gives the uncertainty stated by the source. The list shows a part of the results.

What was measured:
[1] = system: Acinetobacter baumannii Mahidol; experiment: percent growth relative to DMSO-treated control; higher = less growth inhibition; conditions: 10 µM; 18 h
[2] = system: Acinetobacter baumannii Naval-81; experiment: as above; conditions: 10 µM; 18 h

Work on `Cc1nc2ccccn2c1C(=O)NCc1ccc(Cl)cc1` yielded a percent growth [1] of 81.2 ± 75% and a percent growth [2] of 103 ± 32%.
With `COc1cccc2c(C)nc(N=C(N)N)nc12` the percent growth [1] was 103 ± 16% and the percent growth [2] was 83.8 ± 29%.
In the case of `O=C(Nc1nnc(S)s1)c1cc(Br)ccc1Cl`, the percent growth [1] is reported as 96.9 ± 2.8% and the percent growth [2] is reported as 92.2 ± 20%.
Work on `O=C1N(Cc2cc3ccccc3s2)CC2CN(Cc3ccccc3)CCN12` (stereo not given) yielded a percent growth [1] of 80.4 ± 26% and a percent growth [2] of 83.4 ± 27%.
With `O=C([C@@H](c1ccc(Cl)cc1)c1cccnc1)N1CCN(c2ccc(C(F)(F)F)cc2)CC1` the percent growth [1] was 94.5 ± 4.7% and the percent growth [2] was 88.5 ± 14%.
For `NC(=O)c1cc(Br)ccc1OCCOc1ccccc1`, the percent growth [1] was 86.7 ± 9.4% and the percent growth [2] was 90.6 ± 4.2%.
With `c1ccc(-c2[nH]c3ccccc3c2C(c2ccccn2)N2CCCC2)cc1` (stereo not given) the percent growth [1] was 106 ± 26% and the percent growth [2] was 109 ± 32%.
For `Nc1ncc(-c2ccc(C(F)(F)F)nc2)cc1-c1ccc(C(F)(F)F)nc1`, the percent growth [1] was 110 ± 17% and the percent growth [2] was 82.5 ± 2.9%.
With `N=C(N)Nc1ccc(-c2ccc(-c3ccc(NC(=N)N)cc3Cl)o2)c(Cl)c1` the percent growth [1] was 52.1 ± 24% and the percent growth [2] was 54.6 ± 37%.
`COc1cccc(OC)c1C(=O)Nc1ccc(Cl)c(-c2nc3ccccc3s2)c1` showed a percent growth [1] of 87.3 ± 12% and a percent growth [2] of 80.7 ± 53%.
`COc1cc(C2=NCCN2)ccc1-n1cc(-c2cccc(C3=NCCN3)c2)nn1` showed a percent growth [1] of 95.4 ± 9.3% and a percent growth [2] of 95.6 ± 23%.
Work on `CC(=O)N(CCN(C(=O)c1ccc(F)cc1)c1ccccc1)c1ccccc1` yielded a percent growth [1] of 103 ± 9.2% and a percent growth [2] of 89.1 ± 5.8%.
`Nc1ncc(-c2cn[nH]c2)cc1-c1nc2cc(Cl)cnc2[nH]1` was tested, and the percent growth [1] was 86.8 ± 7.2% and the percent growth [2] was 96.5 ± 7.1%.
Compound `c1ccc(Oc2ccc(-c3cc(CN4CCOCC4)[nH]n3)cc2)cc1` has a percent growth [1] of 98.1 ± 7.8% and a percent growth [2] of 92.1 ± 28%.
`O=C(NCCN1CCCC1)c1cc(NCCN2CCOCC2)nc2ccc(Cl)cc12` showed a percent growth [1] of 95.1 ± 5.4% and a percent growth [2] of 86 ± 15%.
`Brc1c(-c2ccc3c(c2)OCO3)nc2ncccn12` gave a percent growth [1] of 94.3 ± 17% and a percent growth [2] of 75.2 ± 22%.
`O=C(Nc1nnc(-c2ccc(Cl)s2)o1)c1ccc(Cl)s1` showed a percent growth [1] of 91 ± 18% and a percent growth [2] of 80.7 ± 11%.
`C[C@H]1COc2c(N3CCN(C)CC3)c(F)cc3c(=O)c(C(=O)O)cn1c23` showed a percent growth [1] of -0.0716 ± 0.12% and a percent growth [2] of 38.4 ± 46%.
With `COc1ccc(Nc2ccccc2NC(=O)c2ccc(O)nc2)cc1` the percent growth [1] was 101 ± 13% and the percent growth [2] was 87.4 ± 18%.
For `c1ccc(Oc2ccc(-c3cc(N4CCOCC4)[nH]n3)cc2)cc1`, the percent growth [1] was 90.1 ± 9.1% and the percent growth [2] was 86.8 ± 8.8%.
With `CCOc1ccc2cc(-c3nn(CC4CCN(C)CC4)c4ncnc(N)c34)ccc2c1` the percent growth [1] was 77.3 ± 57% and the percent growth [2] was 85.98 ± 0.33%.
For `CCOc1ccccc1NC(C)C(=O)Nc1cc(C(F)(F)F)ccc1N1CCOCC1` (stereo not given), the percent growth [1] was 99.9 ± 8.7% and the percent growth [2] was 76.9 ± 41%.
`CN1CCN(c2cc(-c3ccc(F)cc3)nc(-c3ccncc3)n2)CC1` showed a percent growth [1] of 55.3 ± 45% and a percent growth [2] of 79.1 ± 13%.
`OCc1ccc(-c2cncc(Nc3cccc(Cl)c3)c2)cc1` showed a percent growth [1] of 96.3 ± 8.6% and a percent growth [2] of 82.1 ± 9.6%.
Compound `COc1cncc(-c2cncc(N3CCN(c4ccncc4)CC3)n2)c1` has a percent growth [1] of 87.3 ± 4.8% and a percent growth [2] of 84.3 ± 5.1%.
Compound `Cc1noc(C)c1C(=O)N1CCCC(c2[nH]c3c(C)cccc3c2-c2ccncc2)C1` (stereo not given) has a percent growth [1] of 123 ± 31% and a percent growth [2] of 80.7 ± 2.7%.
For `Nc1ccc(C(=O)Nc2ccc(-c3nc4ccccc4o3)cc2)cc1`, the percent growth [1] was 95.3 ± 13% and the percent growth [2] was 67.1 ± 22%.
`CC(C)(C)OC(=O)N1CCC(Cn2nc(-c3cnc4ccccc4c3)c3c(N)ncnc32)CC1` showed a percent growth [1] of 90 ± 19% and a percent growth [2] of 93.7 ± 8.9%.
In the case of `CC[C@H](CO)NCCN[C@H](CC)CO`, the percent growth [1] is reported as 81 ± 31% and the percent growth [2] is reported as 107 ± 45%.
Work on `CCCn1nnc(NC(=O)COc2ccc(C3CCCCC3)cc2)n1` yielded a percent growth [1] of 105 ± 23% and a percent growth [2] of 80.5 ± 33%.
In the case of `Nc1nc2ccc(-c3cncc(Oc4ccc(F)cc4)c3)cc2[nH]1`, the percent growth [1] is reported as 71.8 ± 21% and the percent growth [2] is reported as 99 ± 4.4%.
For `CN1CCC(c2cc(-c3ccncc3)c(-c3ccc(F)cc3)[nH]2)CC1`, the percent growth [1] was 84.2 ± 23% and the percent growth [2] was 91 ± 12%.
In the case of `NS(=O)(=O)c1cncc(-c2ccc3nccc(-c4cn[nH]c4)c3n2)c1`, the percent growth [1] is reported as 99.9 ± 12% and the percent growth [2] is reported as 94.1 ± 8.3%.
For `COc1ccc(-c2nc(-c3cccc(NC(=O)Cc4ccc(F)cc4)c3)no2)cc1OC`, the percent growth [1] was 75.5 ± 40% and the percent growth [2] was 94.9 ± 28%.
In the case of `CN1CCN(CCCOc2ncc(Nc3ncc(-c4ccc(C(F)(F)F)c(F)c4)nc3C(N)=O)cn2)CC1`, the percent growth [1] is reported as 85.4 ± 11% and the percent growth [2] is reported as 96.4 ± 24%.
For `Nc1cccnc1Nc1ccc(Cl)cc1`, the percent growth [1] was 102 ± 12% and the percent growth [2] was 92.9 ± 7.5%.
`O=C(c1cc2ccccc2o1)N1CCN(Cc2ccc3c(c2)OCO3)CC1` showed a percent growth [1] of 107 ± 15% and a percent growth [2] of 78.1 ± 14%.
Work on `COc1cccc(CC(=O)N2CCC(n3c(C)nc4ccc(F)cc43)CC2)c1` yielded a percent growth [1] of 92.5 ± 3.3% and a percent growth [2] of 81.3 ± 17%.
In the case of `COC(=O)Nc1nc2cc(C(=O)c3ccccc3)ccc2[nH]1`, the percent growth [1] is reported as 94 ± 28% and the percent growth [2] is reported as 112 ± 46%.
With `N#Cc1nc(-c2ccccc2F)oc1NCCc1ccccc1` the percent growth [1] was 96.8 ± 4.4% and the percent growth [2] was 78.3 ± 12%.
For `Cc1ccc2nc(C)c(-c3ccn(Cc4ccccc4)n3)n2c1`, the percent growth [1] was 98.9 ± 7.8% and the percent growth [2] was 75.5 ± 19%.
`CCCCOC(=O)Nc1cc2nc(C3CCCCC3)[nH]c2cc1N1CCCC1` showed a percent growth [1] of 64.8 ± 36% and a percent growth [2] of 103 ± 7.7%.
For `CCc1ccc([C@@H]2C[C@H](C(F)(F)F)n3ncc(C(=O)NCc4ccc(OC)cc4)c3N2)cc1`, the percent growth [1] was 87.5 ± 19% and the percent growth [2] was 104 ± 6.4%.
Compound `Cc1ccc(-c2cc(C(=O)Nc3cccnc3)c3cc(Br)ccc3n2)cc1` has a percent growth [1] of 92.5 ± 6.1% and a percent growth [2] of 97.6 ± 22%.
With `FC(F)(F)c1cc(NCCc2ccccc2)nc(-c2ccccn2)n1` the percent growth [1] was 101 ± 9.4% and the percent growth [2] was 89 ± 4.7%.
`CNC1C(OC2C(OC3C(O)C(O)C(NC(=N)N)C(O)C3NC(=N)N)OC(C)C2(O)C=O)OC(CO)C(O)C1O` (stereo not given) was tested, and the percent growth [1] was 136 ± 40% and the percent growth [2] was 93.3 ± 8.9%.
For `CCC(=O)Nc1ccccc1C(=O)Nc1ccccn1`, the percent growth [1] was 95.9 ± 8.1% and the percent growth [2] was 83.7 ± 26%.
In the case of `Cc1cc(C(=O)Nc2cnn(Cc3ccc(Cl)cc3Cl)c2)no1`, the percent growth [1] is reported as 117 ± 25% and the percent growth [2] is reported as 70.1 ± 27%.
With `Cc1ccc2oc(-c3cc(NC(=O)Cc4ccccc4)ccc3Cl)nc2c1` the percent growth [1] was 86.4 ± 35% and the percent growth [2] was 84.9 ± 19%.
`Cc1cc(OCC(=O)Nc2ccc(C(C)C)cc2)n(C)c(=O)c1C#N` gave a percent growth [1] of 104 ± 21% and a percent growth [2] of 94 ± 14%.
`Cc1cccnc1NC(=O)c1cccc(OCc2c(C)noc2C)c1` showed a percent growth [1] of 92.7 ± 7.7% and a percent growth [2] of 96.5 ± 21%.
Work on `CS(=O)(=O)N1CCC(CCn2nc(Cc3cccc4ccccc34)c3c(N)ncnc32)CC1` yielded a percent growth [1] of 73.9 ± 34% and a percent growth [2] of 80.3 ± 13%.
`CC(C)n1nc(-c2cc3c(Cl)cccc3[nH]2)c2c(N)ncnc21` showed a percent growth [1] of 92.3 ± 15% and a percent growth [2] of 98.8 ± 6.8%.
With `O=C(Nc1ccccc1)c1ccc(-c2cc3ccncc3cc2OC2CCNCC2)s1` the percent growth [1] was 101 ± 9% and the percent growth [2] was 90.6 ± 13%.
For `CCN(CC)S(=O)(=O)c1ccc(C(=O)Nc2cc(C)nn2-c2nc(C)c(C)c(=O)[nH]2)cc1`, the percent growth [1] was 69.3 ± 41% and the percent growth [2] was 73.4 ± 24%.
Compound `NS(=O)(=O)c1cccc(-c2ccc3ncc(N4CCOCC4)nc3c2)c1` has a percent growth [1] of 93.7 ± 7.1% and a percent growth [2] of 101 ± 19%.
Work on `Cc1ccc(S(=O)(=O)N2CCN(C(=O)c3cc(-c4ccccc4)[nH]n3)CC2)cc1` yielded a percent growth [1] of 124 ± 38% and a percent growth [2] of 81.8 ± 24%.
`c1csc(-c2cnc3sc(NCC4CCOCC4)nn23)c1` showed a percent growth [1] of 96 ± 15% and a percent growth [2] of 86.8 ± 16%.
In the case of `c1ccc(-c2nc(NC3CCCCC3)cc(C3CC3)n2)nc1`, the percent growth [1] is reported as 104 ± 12% and the percent growth [2] is reported as 71.6 ± 4.3%.
`CCN(CC)C(=O)N1CCN(C)CC1` showed a percent growth [1] of 97 ± 7.8% and a percent growth [2] of 70.4 ± 36%.
For `Cc1ccc(S(=O)(=O)n2cc(-c3ccnc(N)c3)c3cc(Br)cnc32)cc1`, the percent growth [1] was 92.8 ± 9.5% and the percent growth [2] was 83.5 ± 6.5%.
`Cc1nc(-c2ccccn2)nc(N(C)CCc2ccccc2)c1Cl` was tested, and the percent growth [1] was 100 ± 8.2% and the percent growth [2] was 73.5 ± 17%.
`O=C(C1CCN(c2nnc(-n3cccc3)s2)CC1)N1CCC(Cc2ccccc2)CC1` gave a percent growth [1] of 88.7 ± 6% and a percent growth [2] of 92.2 ± 11%.
With `CNC(=O)c1nn(C)c2c1C(C)(C)Cc1cnc(Nc3ccc(N4CCN(C)CC4)cc3)nc1-2` the percent growth [1] was 85.5 ± 52% and the percent growth [2] was 93.7 ± 7.3%.
Work on `CCOC(=O)c1noc(N)c1-c1ccccc1` yielded a percent growth [1] of 100 ± 3% and a percent growth [2] of 87.5 ± 24%.
